# PubChem BioAssay AID1259254 | NCATS | 2017
# Test: 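Genome-wide screen for genes that prevent DNA re-replication in cancer cells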 (primary screen)
# Cell system: human HCT116 colorectal cancer cells
# Knock-down reagent: single siRNA against human genes
# Time to read-out: 3 days
# Measurement: 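Nuclei stained with Hoechst and imaged; cell-cycle phase assigned by DNA content; G2 share scaled per plate, non-targeting siRNA 0%, GMNN siRNA 100%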
# Direction: G2 robust z-score: higher = more G2 cells, more excess DNA replication
# Hit rule: 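Active siRNAs have a G2 robust z of 5 or more median absolute deviations over the median, which in these data means about 38% or higher of GMNN control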
# The deposit covers about 59,000 reagents; shown is an unselected part. Of all reagents, about 1,550 (2.6%) got an active call. 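G2 share is only a proxy for re-replication; each gene was hit by three separate siRNAs, and active genes were retested.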 The numbers tell different reagents against one gene apart. Further read-outs or replicates are left out here. The record does not give: the amount of reagent.
Target gene,reagent,G2 robust z-score,Outcome
NKX6-1,1,0.0134,inactive
NKX6-1,2,-0.554,inactive
NKX6-1,3,0.368,inactive
SAFB2,1,0.359,inactive
SAFB2,2,0.505,inactive
TFPT,1,-0.849,inactive
TFPT,2,0.19,inactive
TFPT,3,0.219,inactive
CPNE6,1,4.47,inactive
CPNE6,2,1.52,inactive
CPNE6,3,0.964,inactive
IGSF9B,1,0.0546,inactive
IGSF9B,2,-0.244,inactive
IGSF9B,3,0.0504,inactive
IGSF9B,4,0.97,inactive
IGSF9B,5,0.983,inactive
IGSF9B,6,0.405,inactive
TM7SF2,1,-0.623,inactive
TM7SF2,2,3.24,inactive
TM7SF2,3,-0.611,inactive
PAPOLG,1,-0.0893,inactive
PAPOLG,2,0.217,inactive
PAPOLG,3,0.929,inactive
PTPN3,1,0.38,inactive
PTPN3,2,0.215,inactive
PTPN3,3,0.674,inactive
NAA80,1,2.4,inactive
NAA80,2,0.0818,inactive
NAA80,3,3.35,inactive

Next part; the last 5 above are carried over.
Target gene,reagent,G2 robust z-score,Outcome
PTPN3,2,0.215,inactive
PTPN3,3,0.674,inactive
NAA80,1,2.4,inactive
NAA80,2,0.0818,inactive
NAA80,3,3.35,inactive
RPS3A,1,7.29,active
RPS3A,2,5.54,active
RPS3A,3,2.31,inactive
TMEM242,1,-0.0691,inactive
TMEM242,2,0.0436,inactive
TMEM242,3,0.608,inactive
SYT14P1,1,2.63,inactive
SYT14P1,2,-0.485,inactive
SYT14P1,3,-0.632,inactive
F2RL3,1,3.54,inactive
F2RL3,2,-0.875,inactive
F2RL3,3,-0.711,inactive
SLC60A1,1,0.119,inactive
SLC60A1,2,-1.08,inactive
SLC60A1,3,0.307,inactive
ITGA3,1,0.977,inactive
ITGA3,2,-0.421,inactive
ITGA3,3,-0.193,inactive
